In PMC6401029:
Results are given in words; binding and its absence hold for the method and conditions named. In cells and extracts the contact can be indirect. Some results given as binding are weak or reduced against the parent protein; the word gives no strength.

Amino acid sequences for entries named in this document (tags omitted).
UniProt Q9JLV5: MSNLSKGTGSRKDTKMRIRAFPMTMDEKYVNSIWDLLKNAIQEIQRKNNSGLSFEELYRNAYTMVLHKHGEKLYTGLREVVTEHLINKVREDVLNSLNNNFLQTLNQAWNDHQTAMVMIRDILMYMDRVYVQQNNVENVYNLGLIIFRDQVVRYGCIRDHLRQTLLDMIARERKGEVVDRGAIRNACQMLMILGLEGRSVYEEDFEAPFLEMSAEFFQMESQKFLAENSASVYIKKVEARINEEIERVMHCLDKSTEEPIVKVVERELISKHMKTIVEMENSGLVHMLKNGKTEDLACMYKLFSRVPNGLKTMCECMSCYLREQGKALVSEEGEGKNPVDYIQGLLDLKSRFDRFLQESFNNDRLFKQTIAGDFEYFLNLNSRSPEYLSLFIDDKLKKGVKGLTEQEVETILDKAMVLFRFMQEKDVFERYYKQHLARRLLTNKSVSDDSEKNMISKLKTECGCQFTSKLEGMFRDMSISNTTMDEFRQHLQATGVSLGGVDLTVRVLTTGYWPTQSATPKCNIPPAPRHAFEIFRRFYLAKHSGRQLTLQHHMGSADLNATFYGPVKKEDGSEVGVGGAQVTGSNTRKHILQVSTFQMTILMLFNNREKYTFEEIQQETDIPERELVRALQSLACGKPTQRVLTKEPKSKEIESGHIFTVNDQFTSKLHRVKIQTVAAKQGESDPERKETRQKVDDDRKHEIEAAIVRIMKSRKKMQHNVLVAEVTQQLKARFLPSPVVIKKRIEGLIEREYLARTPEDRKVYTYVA
UniProt Q8BNW9: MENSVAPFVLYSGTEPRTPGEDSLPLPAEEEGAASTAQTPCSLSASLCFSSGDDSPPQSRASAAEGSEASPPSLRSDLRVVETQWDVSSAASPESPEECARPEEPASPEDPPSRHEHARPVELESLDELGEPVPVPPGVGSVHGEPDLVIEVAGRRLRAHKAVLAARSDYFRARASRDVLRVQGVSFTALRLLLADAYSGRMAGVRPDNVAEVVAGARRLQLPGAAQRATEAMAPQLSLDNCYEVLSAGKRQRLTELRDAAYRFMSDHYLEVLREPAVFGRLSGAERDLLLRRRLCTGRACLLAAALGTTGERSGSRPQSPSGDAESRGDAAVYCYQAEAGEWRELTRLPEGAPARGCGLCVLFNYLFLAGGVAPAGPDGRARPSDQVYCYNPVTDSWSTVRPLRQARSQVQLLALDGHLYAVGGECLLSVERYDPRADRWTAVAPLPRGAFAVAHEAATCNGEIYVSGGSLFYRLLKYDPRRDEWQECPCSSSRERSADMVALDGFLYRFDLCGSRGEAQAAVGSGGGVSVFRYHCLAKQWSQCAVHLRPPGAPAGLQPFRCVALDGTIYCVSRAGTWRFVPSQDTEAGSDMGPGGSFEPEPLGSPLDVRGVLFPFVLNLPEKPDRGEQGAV

Biological target: Cullin3 (mouse (endogenous in RAW-D)) (UniProt Q9JLV5)
Test: co-IP; RAW-D cells cultured with RANKL (100 ng/mL) for 2 days; lysed in PBS with 0.1% Triton X-100, 10 mM N-ethylmaleimide and proteinase inhibitors; supernatant immunoprecipitated with anti-Cullin3 antibody immobilised on resin (Pierce Co-immunoprecipitation Kit); western blot with anti-GFP antibody

KBTBD11-GFP fusion protein (Kelch repeat and BTB domain-containing protein 11, mouse) (from UniProt Q8BNW9 1-633)
binding: binds
